Some results were stated once for a whole list of compounds, not compound by compound.
Each compound was assayed against T1, native Rho (rhodanese) (Bos taurus, UniProt P00586) (assay: Counter-screen for inhibition of native rhodanese enzymatic activity). Conditions: log of IC50 (μM scale), with standard deviation.
T1 construct: purchased Roche (so in the source) R1756
T1 sequence (P00586 1-297): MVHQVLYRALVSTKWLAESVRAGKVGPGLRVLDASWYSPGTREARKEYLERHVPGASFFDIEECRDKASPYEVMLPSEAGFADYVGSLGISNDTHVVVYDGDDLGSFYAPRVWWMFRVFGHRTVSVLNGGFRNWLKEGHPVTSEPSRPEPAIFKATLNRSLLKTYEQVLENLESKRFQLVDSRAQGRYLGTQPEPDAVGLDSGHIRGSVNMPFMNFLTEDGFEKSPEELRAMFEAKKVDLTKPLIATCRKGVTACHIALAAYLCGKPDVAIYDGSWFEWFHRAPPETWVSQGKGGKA
Assay type: biochemical
Description: Reagent Preparations & Assay Protocol: Reagents were identical to those used in the GroEUES-dRho refolding assay described above; however, the assay protocol differed in the sequence of compound addition to the wells. Compounds were pin-transferred after the 60 minute incubation for the refolding cycle, but prior to the addition of the thiocyanate enzymatic assay stock. Thus, the refolding reactions were allowed to proceed for 60 min at 37° C. in the absence of test compounds, but the enzymatic activity of the refolded rhodanese reporter enzyme was monitored in the presence of test compounds (inhibitor concentration range during the enzymatic reporter reaction is 100 µM to 46 nM-3-fold dilutions). IC50 values for the rhodenase reporter enzyme were determined as described above. Results presented represent the averages of IC50 values obtained from at least quadriplicate (duplicate of duplicate) replicates.

Compound | log(IC50) Native Rho Reporter
O=C(Nc1ccc(Sc2nc3ccccc3s2)c(Cl)c1)c1cc(Br)cc(Br)c1O [Compound 1, N-(4-(Benzo[d]thiazol-2-ylthio)-3-chlorophenyl)-3,5-dibromo-2-hydroxybenzamide] | >2 >2 >2 >2 >2 >2 >2 >2
O=C(Nc1ccc(Sc2nc3ccccc3s2)c(Cl)c1)c1cc(Br)ccc1O [Compound 3, N-(4-(Benzo[d]thiazol-2-ylthio)-3-chlorophenyl)-5-bromo-2-hydroxybenzamide] | >2 >2 >2 >2 >2 >2 >2 >2
O=C(Nc1ccc(Sc2nc3ccccc3s2)c(Cl)c1)c1ccccc1O [Compound 4, N-(4-(Benzo[d]thiazol-2-ylthio)-3-chlorophenyl)-2-hydroxybenzamide] | >2 >2 >2 >2 >2 >2 >2 >2
O=C(Nc1ccc(Sc2nc3ccccc3s2)cc1)c1cc(Br)ccc1O [Compound 7, N-(4-(Benzo[d]thiazol-2-ylthio)phenyl)-5-bromo-2-hydroxybenzamide] | >2 >2 >2 >2 >2 >2 >2 >2
O=C(Nc1ccc(Sc2nc3ccccc3s2)cc1)c1ccccc1O [Compound 8, N-(4-(Benzo[d]thiazol-2-ylthio)phenyl)-2-hydroxybenzamide] | >2 >2 >2 >2 >2 >2 >2 >2
O=C(Nc1ccc(Sc2nc3ccccc3s2)c(Cl)c1)c1cc(Br)cc(Br)c1 [Compound 17, N-(4-(Benzo[d]thiazol-2-ylthio)-3-chlorophenyl)-3,5-dibromobenzamide] | >2 >2 >2 >2 >2 >2
O=C(Nc1ccc(Sc2nc3ccccc3s2)c(Cl)c1)c1cccc(Br)c1 [Compound 18, N-(4-(Benzo[d]thiazol-2-ylthio)-3-chlorophenyl)-3-bromobenzamide] | >2 >2 >2 >2 >2 >2
O=C(Nc1ccc(Sc2nc3ccccc3s2)c(Cl)c1)c1ccccc1 [Compound 19, N-(4-(Benzo[d]thiazol-2-ylthio)-3-chlorophenyl)benzamide] | >2 >2 >2 >2 >2 >2
O=C(Nc1ccc(Sc2nc3ccccc3s2)cc1)c1cc(Br)cc(Br)c1 [Compound 20, N-(4-(Benzo[d]thiazol-2-ylthio)phenyl)-3,5-dibromobenzamide] | >2 >2 >2 >2 >2 >2
O=C(Nc1ccc(Sc2nc3ccccc3s2)cc1)c1cccc(Br)c1 [Compound 21, N-(4-(Benzo[d]thiazol-2-ylthio)phenyl)-3-bromobenzamide] | >2 >2 >2 >2 >2 >2
O=C(Nc1ccc(Sc2nc3ccccc3s2)cc1)c1ccccc1 [Compound 22, N-(4-(Benzo[d]thiazol-2-ylthio)phenyl)benzamide] | >2 >2 >2 >2 >2 >2
COc1c(Br)cc(Br)cc1C(=O)Nc1ccc(Sc2nc3ccccc3s2)c(Cl)c1 [Compound 29, N-(4-(Benzo[d]thiazol-2-ylthio)-3-chlorophenyl)-3,5-dibromo-2-methoxybenzamide] | >2 >2 >2 >2 >2 >2 >2 >2
COc1ccc(Br)cc1C(=O)Nc1ccc(Sc2nc3ccccc3s2)c(Cl)c1 [Compound 31, N-(4-(Benzo[d]thiazol-2-ylthio)-3-chlorophenyl)-5-bromo-2-methoxybenzamide] | >2 >2 >2 >2 >2 >2 >2 >2
COc1ccccc1C(=O)Nc1ccc(Sc2nc3ccccc3s2)c(Cl)c1 [Compound 32, N-(4-(Benzo[d]thiazol-2-ylthio)-3-chlorophenyl)-2-methoxybenzamide] | >2 >2 >2 >2 >2 >2 >2 >2
COc1c(Br)cc(Br)cc1C(=O)Nc1ccc(Sc2nc3ccccc3s2)cc1 [Compound 33, N-(4-(Benzo[d]thiazol-2-ylthio)phenyl)-3,5-dibromo-2-methoxybenzamide] | >2 >2 >2 >2 >2 >2 >2 >2
COc1ccc(Br)cc1C(=O)Nc1ccc(Sc2nc3ccccc3s2)cc1 [Compound 35, N-(4-(Benzo[d]thiazol-2-ylthio)phenyl)-5-bromo-2-methoxybenzamide] | >2 >2 >2 >2 >2 >2 >2 >2
COc1ccccc1C(=O)Nc1ccc(Sc2nc3ccccc3s2)cc1 [Compound 36, N-(4-(Benzo[d]thiazol-2-ylthio)phenyl)-2-methoxybenzamide] | >2 >2 >2 >2 >2 >2 >2 >2

— US20210395210A1, “INHIBITION OF BACTERIAL CHAPERONIN SYSTEMS” (THE TRUSTEES OF INDIANA UNIVERSITY, priority 2018, published 2021)
